Taken from: PubChem BioAssay AID504744 (Drosophila RNAi Screening Center, 2011)
Aim: 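Find genes whose loss alters insulin-driven dAkt phosphorylation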 (primary screen). Cell system: Drosophila Kc167 cells. Reagents: long dsRNA against Drosophila genes, 250 ng dsRNA per well of a 384-well plate. Duration: 3 days of knock-down, then overnight serum-free starvation before stimulation. Conditions: bovine insulin at 387 nM for 10 minutes after 12 h without serum. Read-out: 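Per-well phospho-dAkt level from an in-cell fluorescent antibody stain, divided by a DNA-dye signal; log2 residuals turned into z-scores that take cell number into account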. Rule for the call: 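Under insulin, a gene counts as a hit if the average z-score of two replicates lies above 2.5 or below -2.5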.
In all, the deposit lists about 23,000 reagents; this is a random part of those that have a named target and a result. Of all reagents, 98 (0.43%) got an active call. 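Only hit calls are given; the phospho-dAkt signals, z-scores and hit direction were not deposited.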 The numbers tell different reagents against one gene apart. A plus sign joins genes that one reagent is predicted to hit. Reagent sequences are not shown.

| target gene | reagent | call |
| --- | --- | --- |
| Fst | 1 | inactive |
| CG10340 | 1 | inactive |
| CG13872 | 1 | inactive |
| Vdup1 | 1 | inactive |
| CG17325 + CG42305 | 1 | inactive |
| Ge-1 | 1 | inactive |
| CG2750 | 1 | inactive |
| CG33181 | 1 | inactive |
| CG33181 | 2 | inactive |
| lncRNA:CR42862 + CG33229 | 1 | inactive |
| Muc68E | 1 | inactive |
| e(y)2 | 1 | inactive |
| CG13847 | 1 | inactive |
| CG5068 | 1 | inactive |
| Rpn11 | 1 | inactive |
| CG10969 | 1 | inactive |
| asp | 1 | inactive |
| MsrA | 1 | inactive |
| CG32115 | 1 | inactive |
| CG18081 | 1 | inactive |
| crim | 1 | inactive |
| CG13102 | 1 | inactive |
| trx | 1 | inactive |
| CG13912 | 1 | inactive |
| Grx1 | 1 | inactive |
| CG10011 | 1 | inactive |
| CG42258 | 1 | inactive |
| CG42258 | 2 | inactive |
| Spn47C | 1 | inactive |
| CG13511 | 1 | inactive |
| Rrp42 | 1 | inactive |
| Scp1 | 1 | inactive |
| Scp1 | 2 | inactive |
| Scp1 | 3 | inactive |
| CG6333 | 1 | inactive |
| Edg84A | 1 | inactive |
| CR14798 | 1 | inactive |
| l(3)neo38 | 1 | inactive |
| l(3)neo38 | 2 | inactive |
| CG10839 | 1 | inactive |
| slmo + CG34179 | 1 | inactive |
| Coq9 | 1 | inactive |
| Twdlbeta | 1 | inactive |
| CG41520 | 1 | inactive |
| CG41520 | 2 | inactive |
| CG15721 | 1 | inactive |
| Kdm2 | 1 | inactive |
| CG9624 | 1 | inactive |
| Nos | 1 | inactive |
| Stat92E | 1 | inactive |
| CG14712 | 1 | inactive |
| CG3919 | 1 | inactive |
| Den1 | 1 | inactive |
| tplus3a + tplus3b | 1 | inactive |
| CG7443 | 1 | inactive |
| CG30082 | 1 | inactive |
| AstA | 1 | inactive |
| alphaKap4 | 1 | inactive |
| Taf12L | 1 | inactive |
| bbx + waw | 1 | inactive |
| bbx + waw | 2 | inactive |
| per | 1 | inactive |
| Npc2g | 1 | inactive |
| CG6108 (retired record) | 1 | inactive |

4 of these entries, reformatted.
target gene	reagent	call
bbx + waw	1	inactive
bbx + waw	2	inactive
per	1	inactive
Npc2g	1	inactive
